Test results reported in article PMC2741464.
Construct, isoform or probe ends are uncertain for at least one entry. Weaker means in comparison with the reference protein, sequence or condition of that experiment. For part of these data: At least one verdict was read from the data and is not stated in words by the source.

Tests used:
Ku70/80ΔC (human) [1] = experiment: EMSA; conditions: EMSA: 20 μl, 500 fmol DNA, oxidation 2 mM diamide 15 min on ice, re-reduction 5 mM DTT 15 min on ice, binding temperature not stated, recombinant protein, label: 32P
Ku70/Ku80 C493A (human) [2] = experiment: EMSA; conditions: oxidized, diamide (0-2 mM); EMSA: 20 μl, 500 fmol DNA; oxidation 2 mM diamide 15 min on ice, re-reduction 5 mM DTT 15 min on ice; binding temperature not stated; recombinant protein; protein details: His6 on Ku70; label: 32P
[3] = tested on: Ku70/Ku80 heterodimer, wild type (human); experiment: EMSA; conditions: EMSA: 20 μl, 500 fmol DNA, oxidation 2 mM diamide 15 min on ice, re-reduction 5 mM DTT 15 min on ice, binding temperature not stated, recombinant protein, protein details: His6 on Ku70, label: 32P
Ku70/80ΔC (human) [4] = experiment: fluorescence polarization; conditions: 50 mM Tris-HCl pH 7.8, 10 mM MgCl2, 50 mM NaCl (FP: plus 1 mM DTT, 0.5 ml), recombinant protein
Ku70/Ku80 C493A (human) [5] = experiment: fluorescence polarization; conditions: 50 mM Tris-HCl pH 7.8, 10 mM MgCl2, 50 mM NaCl (FP: plus 1 mM DTT, 0.5 ml), recombinant protein, protein details: His6 on Ku70
Ku70/Ku80 C493S (human) = experiment: fluorescence polarization; conditions: 50 mM Tris-HCl pH 7.8, 10 mM MgCl2, 50 mM NaCl (FP: plus 1 mM DTT, 0.5 ml), recombinant protein, protein details: His6 on Ku70
[6] = tested on: Ku70/Ku80 heterodimer, wild type (human); experiment: fluorescence polarization; conditions: oxidized, 2 mM diamide, minimal binding, no Kd determinable; 50 mM Tris-HCl pH 7.8, 10 mM MgCl2, 50 mM NaCl (FP: plus 1 mM DTT, 0.5 ml); recombinant protein; protein details: His6 on Ku70
[7] = re-reduced: 2 mM diamide then 5 mM DTT, restored but not fully
[8] = oxidized, 2 mM diamide, minimal binding (data not shown)
[9] = reduced, identical to wild type (data not shown)

CCCCTATCCTTTCCGCGTCCTTACTTCCCC (double strand) [30-bp duplex 30A/30C (EMSA)]
binding result (Ku70/80ΔC (human) [1]; oxidized, 2 mM diamide): binds more weakly
binding result (Ku70/80ΔC (human) [1]; [7]): binds more weakly
binding result (Ku70/Ku80 C493A (human) [2]): binds more weakly
binding result ([3]; oxidized, diamide (0-2 mM)): binds more weakly
binding result [3, 7]: binds more weakly

CCCCTATCCTTTCCGCGTCCTTACTTCCCC (double strand) [30-bp duplex 30A/30C, fluorescein (polarization)]
binding result (Ku70/80ΔC (human) [4]; oxidized, 2 mM diamide, minimal binding, no Kd determinable): binds more weakly
Kd (Ku70/80ΔC (human) [4]; re-reduced: 2 mM diamide then 5 mM DTT, printed as <50 though text says incomplete recovery): < 50000 nM
binding result (Ku70/Ku80 C493A (human) [5]; [8]): binds more weakly
binding result (Ku70/Ku80 C493A (human) [5]; [9]): binds
binding result (Ku70/Ku80 C493S (human); [8]): binds more weakly
binding result (Ku70/Ku80 C493S (human); [9]): binds
binding result [6]: binds more weakly
